Measured values published in paper doi:10.1101/2020.09.10.288878.
Results are given in words; binding and its absence hold for the method and conditions named. Binding can be weak; no strength is given. Sequences can lack the tags named with a protein.

By UniProt entry, the sequences of proteins in these tests, tags left out. Where a name states a change or a piece, a line headed by the entry shows the natural chain unless it says otherwise.
UniProt P38283: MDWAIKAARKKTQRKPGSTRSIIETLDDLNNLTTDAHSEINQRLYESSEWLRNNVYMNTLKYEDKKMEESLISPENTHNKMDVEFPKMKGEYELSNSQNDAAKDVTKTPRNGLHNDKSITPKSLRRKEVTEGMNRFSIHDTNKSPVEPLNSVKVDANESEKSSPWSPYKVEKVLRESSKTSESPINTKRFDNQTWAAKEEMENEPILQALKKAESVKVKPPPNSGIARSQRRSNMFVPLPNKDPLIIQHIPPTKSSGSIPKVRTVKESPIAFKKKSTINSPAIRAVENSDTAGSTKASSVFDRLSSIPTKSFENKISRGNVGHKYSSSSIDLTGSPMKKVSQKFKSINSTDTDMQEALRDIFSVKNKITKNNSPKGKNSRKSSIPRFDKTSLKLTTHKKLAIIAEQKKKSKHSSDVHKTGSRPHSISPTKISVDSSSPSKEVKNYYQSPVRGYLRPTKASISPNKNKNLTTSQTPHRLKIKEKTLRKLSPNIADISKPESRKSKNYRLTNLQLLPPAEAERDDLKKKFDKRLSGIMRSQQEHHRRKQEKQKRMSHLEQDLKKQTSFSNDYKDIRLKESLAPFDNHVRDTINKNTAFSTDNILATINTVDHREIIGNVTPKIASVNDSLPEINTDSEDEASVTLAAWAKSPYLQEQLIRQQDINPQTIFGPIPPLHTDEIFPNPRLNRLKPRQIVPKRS

Target: Sli15 microtubule-binding (MTB) domain fused to the DNA binding domain of Gal4 (S. cerevisiae) (UniProt P38283)
Test: two-hybrid

B1: Dam1 fused to the activation domain of Gal4 (protein, UniProt P53267 1-343)
chain: MSEDKAKLGTTRSATEYRLSIGSAPTSRRSSMGESSSLMKFADQEGLTSSVGEYNENTIQQLLLPKIRELSDSIITLDSNFTRLNFIHESLADLNESLGSLLYGIMSNSWCVEFSQAPHDIQDDLIAIKQLKSLEDEKNNLVMELSNMERGIKRKKDEQGENDLAKASQNKQFNQPLFPSSQVRKYRSYDNRDKRKPSKIGNNLQVENEEDYEDDTSSEASFVLNPTNIGMSKSSQGHVTKTTRLNNNTNSKLRRKSILHTIRNSIASGADLPIENDNVVNLGDLHPNNRISLGSGAARVVNGPVTKNRNSMFSGRAERKPTESRHSVAKKTEKKINTRPPFR
B1 was tested, and the binding was “binds”.
